Further values from the same series stand in other lists.
Assays:
Assay type in all cases: cell-based
Details in all cases: U-87MG ATCC
[1] = Inhibition of RTK/PI3K/AKT/mTOR signaling in human U87 cells assessed as down regulation of TRIM9 gene expression at cytotoxic IC50 measured after 48 hrs relative to control
[2] = Inhibition of RTK/PI3K/AKT/mTOR signaling in human U87 cells assessed as down regulation of ANXA5 gene expression at cytotoxic IC50 measured after 48 hrs relative to control
[3] = Inhibition of RTK/PI3K/AKT/mTOR signaling in human U87 cells assessed as up regulation of tetratricopeptide repeat domain 17 gene expression at cytotoxic IC50 measured after 48 hrs relative to control
[4] = Inhibition of RTK/PI3K/AKT/mTOR signaling in human U87 cells assessed as down regulation of CCDC93 gene expression at cytotoxic IC50 measured after 48 hrs relative to control
[5] = Inhibition of RTK/PI3K/AKT/mTOR signaling in human U87 cells assessed as down regulation of KIAA0513 gene expression at cytotoxic IC50 measured after 48 hrs relative to control
[6] = Inhibition of RTK/PI3K/AKT/mTOR signaling in human U87 cells assessed as up regulation of ST6 N-acetylgalactosaminide alpha-2,6-sialyltransferase 6 gene expression at cytotoxic IC50 measured after 48 hrs relative to control
[7] = Inhibition of RTK/PI3K/AKT/mTOR signaling in human U87 cells assessed as up regulation of potassium channel tetramerization domain containing 15 gene expression at cytotoxic IC50 measured after 48 hrs relative to control
[8] = Inhibition of RTK/PI3K/AKT/mTOR signaling in human U87 cells assessed as up regulation of versican gene expression at cytotoxic IC50 measured after 48 hrs relative to control
[9] = Inhibition of RTK/PI3K/AKT/mTOR signaling in human U87 cells assessed as up regulation of HKDC1 gene expression at cytotoxic IC50 measured after 48 hrs relative to control
[10] = Inhibition of RTK/PI3K/AKT/mTOR signaling in human U87 cells assessed as down regulation of HERC6 gene expression at cytotoxic IC50 measured after 48 hrs relative to control
[11] = Inhibition of RTK/PI3K/AKT/mTOR signaling in human U87 cells assessed as down regulation of CDKN2AIP gene expression at cytotoxic IC50 measured after 48 hrs relative to control
[12] = Inhibition of RTK/PI3K/AKT/mTOR signaling in human U87 cells assessed as up regulation of DEAH-box helicase 37 gene expression at cytotoxic IC50 measured after 48 hrs relative to control
[13] = Inhibition of RTK/PI3K/AKT/mTOR signaling in human U87 cells assessed as up regulation of ATP/GTP binding protein like 5 gene expression at cytotoxic IC50 measured after 48 hrs relative to control
[14] = Inhibition of RTK/PI3K/AKT/mTOR signaling in human U87 cells assessed as down regulation of ANKFY1 gene expression at cytotoxic IC50 measured after 48 hrs relative to control
[15] = Inhibition of RTK/PI3K/AKT/mTOR signaling in human U87 cells assessed as up regulation of serine/threonine kinase 39 gene expression at cytotoxic IC50 measured after 48 hrs relative to control
[16] = Inhibition of RTK/PI3K/AKT/mTOR signaling in human U87 cells assessed as up regulation of tripartite motif containing 2 gene expression at cytotoxic IC50 measured after 48 hrs relative to control
[17] = Inhibition of RTK/PI3K/AKT/mTOR signaling in human U87 cells assessed as up regulation of RASSF2 gene expression at cytotoxic IC50 measured after 48 hrs relative to control
[18] = Inhibition of RTK/PI3K/AKT/mTOR signaling in human U87 cells assessed as down regulation of STIL gene expression at cytotoxic IC50 measured after 48 hrs relative to control
[19] = Inhibition of RTK/PI3K/AKT/mTOR signaling in human U87 cells assessed as up regulation of RPL7 gene expression at cytotoxic IC50 measured after 48 hrs relative to control
[20] = Inhibition of RTK/PI3K/AKT/mTOR signaling in human U87 cells assessed as up regulation of GID complex subunit 4 homolog gene expression at cytotoxic IC50 measured after 48 hrs relative to control
[21] = Inhibition of RTK/PI3K/AKT/mTOR signaling in human U87 cells assessed as down regulation of SIPA1L1 gene expression at cytotoxic IC50 measured after 48 hrs relative to control
[22] = Inhibition of RTK/PI3K/AKT/mTOR signaling in human U87 cells assessed as down regulation of ASXL2 gene expression at cytotoxic IC50 measured after 48 hrs relative to control
[23] = Inhibition of RTK/PI3K/AKT/mTOR signaling in human U87 cells assessed as up regulation of prostaglandin-endoperoxide synthase 1 gene expression at cytotoxic IC50 measured after 48 hrs relative to control
[24] = Inhibition of RTK/PI3K/AKT/mTOR signaling in human U87 cells assessed as down regulation of OXCT1 gene expression at cytotoxic IC50 measured after 48 hrs relative to control
[25] = Inhibition of RTK/PI3K/AKT/mTOR signaling in human U87 cells assessed as up regulation of GNAS gene expression at cytotoxic IC50 measured after 48 hrs relative to control
[26] = Inhibition of RTK/PI3K/AKT/mTOR signaling in human U87 cells assessed as down regulation of TRIM24 gene expression at cytotoxic IC50 measured after 48 hrs relative to control
[27] = Inhibition of RTK/PI3K/AKT/mTOR signaling in human U87 cells assessed as up regulation of regulatory factor X5 gene expression at cytotoxic IC50 measured after 48 hrs relative to control
[28] = Inhibition of RTK/PI3K/AKT/mTOR signaling in human U87 cells assessed as down regulation of THOC5 gene expression at cytotoxic IC50 measured after 48 hrs relative to control
[29] = Inhibition of RTK/PI3K/AKT/mTOR signaling in human U87 cells assessed as up regulation of coronin 2A gene expression at cytotoxic IC50 measured after 48 hrs relative to control
[30] = Inhibition of RTK/PI3K/AKT/mTOR signaling in human U87 cells assessed as down regulation of AP2B1 gene expression at cytotoxic IC50 measured after 48 hrs relative to control
[31] = Inhibition of RTK/PI3K/AKT/mTOR signaling in human U87 cells assessed as down regulation of CCNT1 gene expression at cytotoxic IC50 measured after 48 hrs relative to control
[32] = Inhibition of RTK/PI3K/AKT/mTOR signaling in human U87 cells assessed as up regulation of allograft inflammatory factor 1 like gene expression at cytotoxic IC50 measured after 48 hrs relative to control

CC(=O)C(=NNc1ccccc1C#N)C(C)=O
log2FC [1]: -1.34 | log2FC [2]: -0.641 | log2FC [3]: 0.701 | log2FC [4]: -1.04 | log2FC [5]: -1.6 | log2FC [6]: 1.37 | log2FC [7]: 0.912 | log2FC [8]: 1.43 | log2FC [9]: 2.15 | log2FC [10]: -1.57 | log2FC [11]: -1.52 | log2FC [12]: 0.661 | log2FC [13]: 0.656 | log2FC [14]: -0.558 | log2FC [15]: 1.1 | log2FC [16]: 0.746 | log2FC [17]: 1.94 | log2FC [18]: -0.963 | log2FC [19]: 0.329 | log2FC [20]: 0.859 | log2FC [21]: -0.92 | log2FC [22]: -0.609 | log2FC [23]: 1.45 | log2FC [24]: -1.84 | log2FC [25]: 0.356 | log2FC [26]: -0.614 | log2FC [27]: 1.06 | log2FC [28]: -0.488 | log2FC [29]: 0.968 | log2FC [30]: -0.573 | log2FC [31]: -0.62 | log2FC [32]: 1.18

— ChEMBL document CHEMBL4316593 (Eur J Med Chem, 2019)
